Laboratory results reported in publication PMC7862700.
Only a part is listed here, and it is no random draw. For some assays here: At the low end of the ranking, values are background and their order means little. The list shows a part of the results. For some assays here: The exact form of the protein is not confirmed.

Sequences of proteins named here, by UniProt entry; tags and fusion partners are left off. A change or cut given only in a name is not applied to a line headed by its entry.
UniProt Q00613: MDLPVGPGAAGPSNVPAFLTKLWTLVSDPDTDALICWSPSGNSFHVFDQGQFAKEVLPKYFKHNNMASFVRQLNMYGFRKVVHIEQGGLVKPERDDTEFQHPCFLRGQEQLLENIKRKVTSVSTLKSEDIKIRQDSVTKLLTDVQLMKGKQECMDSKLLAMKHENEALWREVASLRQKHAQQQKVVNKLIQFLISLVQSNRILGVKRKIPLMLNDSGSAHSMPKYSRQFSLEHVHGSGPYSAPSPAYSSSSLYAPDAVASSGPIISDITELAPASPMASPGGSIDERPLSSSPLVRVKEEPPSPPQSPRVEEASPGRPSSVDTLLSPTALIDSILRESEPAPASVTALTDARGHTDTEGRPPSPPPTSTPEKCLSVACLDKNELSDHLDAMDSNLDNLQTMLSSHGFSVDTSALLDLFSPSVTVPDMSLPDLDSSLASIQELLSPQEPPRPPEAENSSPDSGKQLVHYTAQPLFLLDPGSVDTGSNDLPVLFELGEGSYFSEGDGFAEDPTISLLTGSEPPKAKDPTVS

How the values were obtained:
[1] = target: T1, ELF2 (UniProt Q15723); assay: DAPPL (digital affinity profiling via proximity ligation, sequencing); conditions: 10 mM Tris-HCl pH 7.5, 50 mM NaCl, 1 mM DTT, 4% glycerol, room temperature, 30 min; GST-TFs on glutathione beads, 16-mer random dsDNA library, 0.1% …; high values mean tight binding; double strand, one strand shown; scale: fold enrichment (6-mer frequency, TF over GST control)
T1 sequence: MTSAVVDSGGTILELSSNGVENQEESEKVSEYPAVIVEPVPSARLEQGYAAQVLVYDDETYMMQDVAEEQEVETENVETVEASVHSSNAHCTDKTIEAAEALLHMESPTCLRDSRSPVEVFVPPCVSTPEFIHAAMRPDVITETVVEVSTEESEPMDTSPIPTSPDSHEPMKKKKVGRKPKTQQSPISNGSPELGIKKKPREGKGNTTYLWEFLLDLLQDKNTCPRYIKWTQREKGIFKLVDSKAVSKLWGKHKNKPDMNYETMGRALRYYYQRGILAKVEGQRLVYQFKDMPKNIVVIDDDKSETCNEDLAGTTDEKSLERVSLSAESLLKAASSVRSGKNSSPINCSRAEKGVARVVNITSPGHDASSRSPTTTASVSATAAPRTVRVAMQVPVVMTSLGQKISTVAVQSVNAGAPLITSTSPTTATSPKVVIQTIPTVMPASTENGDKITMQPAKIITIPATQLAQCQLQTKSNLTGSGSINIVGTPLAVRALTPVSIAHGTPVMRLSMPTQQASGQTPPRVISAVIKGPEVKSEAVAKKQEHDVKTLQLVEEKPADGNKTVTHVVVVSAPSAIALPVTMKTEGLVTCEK

[2] = target: HSF1 (UniProt Q00613); assay: as above; conditions: 10 mM Tris-HCl pH 7.5, 50 mM NaCl, 1 mM DTT, 4% glycerol, room temperature, 30 min; GST-TFs on glutathione beads, 16-mer random dsDNA library, 0.1% …; high values mean tight binding; double strand, one strand shown; scale: fold enrichment (6-mer frequency, TF over GST control)

| Sequence | binding signal [1] | binding signal [2] |
| --- | --- | --- |
| CTATAC | 1.2 |  |
| TTGGTG | 1.24 |  |
| CTCAGA | 1.04 | 1.17 |
| TCCCAA | 1.19 | 1.11 |
| TACCTC | 1.22 |  |
| GCAAAA | 1.04 |  |
| CTTGGT | 1.36 |  |
| CACACT | 1.17 | 0.914 |
| TGGTGT | 1.2 | 0.91 |
| CTCCTG | 1.5 | 1.52 |
| TAGGCT | 1.18 |  |
| GTAAAC | 1.23 |  |
| TGCTGC | 1.11 | 0.971 |
| CAACAT | 1.14 | 0.908 |
| GCACCC | 1.16 | 0.855 |
| CTTTAA | 1.22 |  |
| ACTAAA | 1.26 | 1.37 |
| CTACTT | 2.2 |  |
| TGAAAC | 1.23 | 1.13 |
| GTATGC | 1.13 | 0.865 |
| AAAAGA | 1.11 |  |
| AAGCAC | 1.2 | 1.04 |
| AATCAT | 1.06 |  |
| GTTTGG | 1.03 | 0.896 |
| TACGCT | 1.27 |  |
| TGGATG | 1.34 |  |

Part of the list above in a different format:
Sequence,binding signal [1],binding signal [2]
TCCCAA,1.19,1.11
TACCTC,1.22,
GCAAAA,1.04,
CTTGGT,1.36,
CACACT,1.17,0.914
TGGTGT,1.2,0.91
CTCCTG,1.5,1.52
TAGGCT,1.18,
GTAAAC,1.23,
TGCTGC,1.11,0.971
CAACAT,1.14,0.908
GCACCC,1.16,0.855
CTTTAA,1.22,
ACTAAA,1.26,1.37
CTACTT,2.2,
TGAAAC,1.23,1.13
GTATGC,1.13,0.865
AAAAGA,1.11,
AAGCAC,1.2,1.04
AATCAT,1.06,
GTTTGG,1.03,0.896
TACGCT,1.27,
TGGATG,1.34,

Remaining list, next part:

| Sequence | binding signal [1] | binding signal [2] |
| --- | --- | --- |
| TTAACA | 1.14 | 1.65 |
| GACATC | 1.37 | 0.778 |
| CGTATG | 1.03 | 0.855 |
| ATCTTC | 1.69 |  |
| TTTTGA | 1.09 |  |
| TAATTG | 1.37 |  |
| TTCGTA | 1.34 |  |
| ATCTTT | 1.18 |  |
| TTACTC | 1.18 |  |
| TGGTTC | 1.45 |  |
| AAGCTC | 1.19 |  |
| TGCTTC | 2.57 |  |
| CCGTCC | 1.3 |  |
| AAGCAG | 1.16 |  |
| CCATTT | 1.37 |  |
| CCTCGT | 1.17 |  |
| GATGCT | 1.21 |  |
| CTGCCA | 1.08 |  |
| CTGTTT | 1.43 |  |
| TATATA | 1.3 |  |
| ATCATG | 1.03 |  |
| CTTACC | 1.23 |  |
| TCGATT | 1.06 |  |
| TAATGC | 1.18 |  |
| ATTTTT | 1.16 |  |
| GGAACA | 1.29 |  |

A different layout for part of the listing above.
Sequence	binding signal [1]	binding signal [2]
AAGCAC	1.2	1.04
AATCAT	1.06	

The listing continues:

| Sequence | binding signal [1] | binding signal [2] |
| --- | --- | --- |
| CATCTG | 1.19 |  |
| TTACTG | 1.03 |  |
| ACTCCT | 1.48 |  |
| CTAATA | 1.13 |  |
| TCACTT | 2.06 |  |
| ATTGCC | 1.26 |  |
| AAAATT | 1.36 |  |
| AGCCTC | 1.2 |  |
| CCATTG | 1.12 |  |
| AAATGG | 1.54 |  |
| TCGCTC | 1.2 |  |
| TCTGTT | 1.38 |  |
| AAGGAA | 1.6 |  |
| AACTAA | 1.4 |  |
| CGATAA | 1.06 |  |
| AAAAAA | 1.34 |  |
| TCTGCA | 1.25 |  |
| CTTGAC | 1.13 |  |
| TTAGTT | 1.33 |  |
| TGAACT | 1.24 |  |
| GATGAC | 1.42 |  |
| ACCCGC | 1.21 |  |
| TTATAG | 1.19 |  |
| TAAGCT | 1.12 |  |
